These are yes or no findings as the source states them, for the method shown. In cells and extracts the contact can be indirect. A yes stands for co-enrichment or nearness to the bait. Other partners may have been found. Where a sequence is shown, tags or fusion partners need not be part of it.
T1: Guanylate binding protein 1 (GBP1), Flag-tagged (human) (UniProt P32455)
T1 sequence: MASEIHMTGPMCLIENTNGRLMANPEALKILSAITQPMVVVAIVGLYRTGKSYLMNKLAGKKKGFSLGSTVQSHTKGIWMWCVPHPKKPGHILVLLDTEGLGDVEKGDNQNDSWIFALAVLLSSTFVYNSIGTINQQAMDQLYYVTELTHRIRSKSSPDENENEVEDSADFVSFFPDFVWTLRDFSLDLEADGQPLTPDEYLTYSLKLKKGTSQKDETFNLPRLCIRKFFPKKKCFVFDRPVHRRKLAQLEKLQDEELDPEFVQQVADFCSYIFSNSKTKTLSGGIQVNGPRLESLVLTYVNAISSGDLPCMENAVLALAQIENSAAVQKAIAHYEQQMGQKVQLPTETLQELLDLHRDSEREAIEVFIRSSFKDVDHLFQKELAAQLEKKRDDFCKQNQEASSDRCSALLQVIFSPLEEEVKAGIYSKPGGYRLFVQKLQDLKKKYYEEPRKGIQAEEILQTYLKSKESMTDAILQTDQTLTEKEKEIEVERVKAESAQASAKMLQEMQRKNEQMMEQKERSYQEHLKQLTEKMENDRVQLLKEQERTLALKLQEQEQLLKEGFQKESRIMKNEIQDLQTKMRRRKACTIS

Protein sequences, listed by entry. Tags and fused reporters are not part of them.
UniProt O43143: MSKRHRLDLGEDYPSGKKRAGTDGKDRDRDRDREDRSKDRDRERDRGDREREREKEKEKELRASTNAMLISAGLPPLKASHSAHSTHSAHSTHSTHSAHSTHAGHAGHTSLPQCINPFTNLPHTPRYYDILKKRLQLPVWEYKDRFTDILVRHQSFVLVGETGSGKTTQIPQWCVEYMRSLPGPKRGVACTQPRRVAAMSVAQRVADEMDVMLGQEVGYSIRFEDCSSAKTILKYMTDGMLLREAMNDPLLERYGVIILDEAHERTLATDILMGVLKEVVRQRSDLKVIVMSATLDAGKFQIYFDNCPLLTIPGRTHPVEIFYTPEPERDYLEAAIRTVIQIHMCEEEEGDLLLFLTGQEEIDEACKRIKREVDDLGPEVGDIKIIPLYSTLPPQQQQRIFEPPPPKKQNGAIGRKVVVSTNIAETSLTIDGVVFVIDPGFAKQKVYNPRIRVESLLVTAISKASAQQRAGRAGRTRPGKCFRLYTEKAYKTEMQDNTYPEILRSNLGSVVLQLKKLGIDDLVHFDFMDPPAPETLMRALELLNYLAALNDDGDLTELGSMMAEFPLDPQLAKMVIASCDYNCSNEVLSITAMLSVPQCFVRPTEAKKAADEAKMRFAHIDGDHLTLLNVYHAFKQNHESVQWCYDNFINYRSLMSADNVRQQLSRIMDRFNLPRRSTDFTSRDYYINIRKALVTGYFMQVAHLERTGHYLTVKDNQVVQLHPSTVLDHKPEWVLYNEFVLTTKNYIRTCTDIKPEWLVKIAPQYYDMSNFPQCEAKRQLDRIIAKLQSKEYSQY

B1: SQUAMOUS CELL CARCINOMA ANTIGEN RECOGNIZED BY T CELLS 1 (SART1) (protein, UniProt O43290 1-800)
chain: MGSSKKHRGEKEAAGTTAAAGTGGATEQPPRHREHKKHKHRSGGSGGSGGERRKRSRERGGERGSGRRGAEAEARSSTHGRERSQAEPSERRVKREKRDDGYEAAASSKTSSGDASSLSIEETNKLRAKLGLKPLEVNAIKKEAGTKEEPVTADVINPMALRQREELREKLAAAKEKRLLNQKLGKIKTLGEDDPWLDDTAAWIERSRQLQKEKDLAEKRAKLLEEMDQEFGVSTLVEEEFGQRRQDLYSARDLQGLTVEHAIDSFREGETMILTLKDKGVLQEEEDVLVNVNLVDKERAEKNVELRKKKPDYLPYAEDESVDDLAQQKPRSILSKYDEELEGERPHSFRLEQGGTADGLRERELEEIRAKLRLQAQSLSTVGPRLASEYLTPEEMVTFKKTKRRVKKIRKKEKEVVVRADDLLPLGDQTQDGDFGSRLRGRGRRRVSEVEEEKEPVPQPLPSDDTRVENMDISDEEEGGAPPPGSPQVLEEDEAELELQKQLEKGRRLRQLQQLQQLRDSGEKVVEIVKKLESRQRGWEEDEDPERKGAIVFNATSEFCRTLGEIPTYGLAGNREEQEELMDFERDEERSANGGSESDGEENIGWSTVNLDEEKQQQDFSASSTTILDEEPIVNRGLAAALLLCQNKGLLETTVQKVARVKAPNKSLPSAVYCIEDKMAIDDKYSRREEYRGFTQDFKEKDGYKPDVKIEYVDETGRKLTPKEAFRQLSHRFHGKGSGKMKTERRMKKLDEEALLKKMSSSDTPLGTVALLQEKQKAQKTPYIVLSGSGKSMNANTITK
B2: pre-mRNA processing factor 6 (PRPF6) (protein, UniProt O94906 1-941)
chain: MNKKKKPFLGMPAPLGYVPGLGRGATGFTTRSDIGPARDANDPVDDRHAPPGKRTVGDQMKKNQAADDDDEDLNDTNYDEFNGYAGSLFSSGPYEKDDEEADAIYAALDKRMDERRKERREQREKEEIEKYRMERPKIQQQFSDLKRKLAEVTEEEWLSIPEVGDARNKRQRNPRYEKLTPVPDSFFAKHLQTGENHTSVDPRQTQFGGLNTPYPGGLNTPYPGGMTPGLMTPGTGELDMRKIGQARNTLMDMRLSQVSDSVSGQTVVDPKGYLTDLNSMIPTHGGDINDIKKARLLLKSVRETNPHHPPAWIASARLEEVTGKLQVARNLIMKGTEMCPKSEDVWLEAARLQPGDTAKAVVAQAVRHLPQSVRIYIRAAELETDIRAKKRVLRKALEHVPNSVRLWKAAVELEEPEDARIMLSRAVECCPTSVELWLALARLETYENARKVLNKARENIPTDRHIWITAAKLEEANGNTQMVEKIIDRAITSLRANGVEINREQWIQDAEECDRAGSVATCQAVMRAVIGIGIEEEDRKHTWMEDADSCVAHNALECARAIYAYALQVFPSKKSVWLRAAYFEKNHGTRESLEALLQRAVAHCPKAEVLWLMGAKSKWLAGDVPAARSILALAFQANPNSEEIWLAAVKLESENDEYERARRLLAKARSSAPTARVFMKSVKLEWVQDNIRAAQDLCEEALRHYEDFPKLWMMKGQIEEQKEMMEKAREAYNQGLKKCPHSTPLWLLLSRLEEKIGQLTRARAILEKSRLKNPKNPGLWLESVRLEYRAGLKNIANTLMAKALQECPNSGILWSEAIFLEARPQRRTKSVDALKKCEHDPHVLLAVAKLFWSQRKITKAREWFHRTVKIDSDLGDAWAFFYKFELQHGTEEQQEEVRKRCESAEPRHGELWCAVSKDIANWQKKIGDILRLVAGRIKNTF
B3: U2 small nuclear RNA auxiliary factor 1 (U2AF1) (protein, UniProt Q01081 1-240)
chain: MAEYLASIFGTEKDKVNCSFYFKIGACRHGDRCSRLHNKPTFSQTIALLNIYRNPQNSSQSADGLRCAVSDVEMQEHYDEFFEEVFTEMEEKYGEVEEMNVCDNLGDHLVGNVYVKFRREEDAEKAVIDLNNRWFNGQPIHAELSPVTDFREACCRQYEMGECTRGGFCNFMHLKPISRELRRELYGRRRKKHRSRSRSRERRSRSRDRGRGGGGGGGGGGGGRERDRRRSRDRERSGRF
B4: Serine/arginine-rich splicing factor 7 (SRSF7) (protein, UniProt Q16629 1-238)
chain: MSRYGRYGGETKVYVGNLGTGAGKGELERAFSYYGPLRTVWIARNPPGFAFVEFEDPRDAEDAVRGLDGKVICGSRVRVELSTGMPRRSRFDRPPARRPFDPNDRCYECGEKGHYAYDCHRYSRRRRSRSRSRSHSRSRGRRYSRSRSRSRGRRSRSASPRRSRSISLRRSRSASLRRSRSGSIKGSRYFQSPSRSRSRSRSISRPRSSRSKSRSPSPKRSRSPSGSPRRSASPERMD
B5: Serine/arginine-rich splicing factor 2 (SRSF2) (protein, UniProt Q01130 1-221)
chain: MSYGRPPPDVEGMTSLKVDNLTYRTSPDTLRRVFEKYGRVGDVYIPRDRYTKESRGFAFVRFHDKRDAEDAMDAMDGAVLDGRELRVQMARYGRPPDSHHSRRGPPPRRYGGGGYGRRSRSPRRRRRSRSRSRSRSRSRSRSRYSRSKSRSRTRSRSRSTSKSRSARRSKSKSSSVSRSRSRSRSRSRSRSPPPVSKRESKSRSRSKSPPKSPEEEGAVSS

Target: T1, Guanylate binding protein 1 (GBP1), Flag-tagged (human)
Test: affinity purification with mass spectrometry; CoIP-MS in Caski cells: lysate in NP-40 buffer (50 mM Tris pH 7.4, 150 mM NaCl, 1% NP-40), anti-Flag antibody or mouse IgG control, protein A/G magnetic beads, 4 °C; SDS-PAGE, silver staining, bands cut for mass spectrometry; two repeated experiments

Row | binding | Molecule
1 | binds | Heterogeneous Nuclear Ribonucleoprotein K (HNRNPK) (from UniProt P61978 1-463)
2 | binds | DHX15 (from UniProt O43143 1-795)
3 | binds | B1
4 | binds | B2
5 | binds | B3
6 | binds | B4
7 | binds | B5

Reference: publication PMC10763113
